The list shows a part of the results. These are further read-outs of the screen, such as a control signal, another cell line or another target. No call is given for them. Most of these compounds were active or inconclusive in the main read-out, so they are no random draw. Potencies come from curve fits of mixed quality, noted in brackets.
Experiment: qHTS Assay for Lipid Storage Modulators in Drosophila S3 Cells;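 for cell number change: cells counted by Cell Tracker Red CMTPX staining in the red channel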
Details: BODIPY lipid droplet fluorescence, 18-24 h; for cell number change: measured here: cell count max response, cells fed with added oleic acid
Method in brief: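 Drosophila S3 cells got compounds at several concentrations plus oleic acid (400 uM solution). Laser-scanning cytometry with 488 nm excitation read lipid droplets at 500-530 nm and cells at 575-640 nm. Percent activity was relative to 20 uM Triacsin C.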

[1] = measured here: cell number channel AC50, cells fed with added oleic acid
[2] = measured here: lipid fluorescence (Fed channel) AC50, cells fed with added oleic acid

Compound | cell number change | AC50 [1] | AC50 [2]
O=C(Nc1ccc(-c2nnc(-c3ccco3)o2)cc1)C(c1ccccc1)c1ccccc1 | 39.4% | 18.4 µM [rising, single point] | 
Cc1cccc(NS(=O)(=O)c2ccc(C(=O)NCC(c3ccco3)N(C)C)cc2)c1C (stereo unspecified) | 18.5% | 2.31 µM [rising, partial curve, poor fit] | 0.206 µM [rising, full curve, poor fit]
CCC(C)(C(=O)NC1CCCCC1)N(C)C(=O)c1ccccn1 (stereo unspecified) | -4.15% |  | 
Cc1ccc(C2CC(=O)c3cnn(-c4nc(C)cc(C)n4)c3C2)cc1 (stereo unspecified) | -49.3% | 29.1 µM [falling, single point] | 29.1 µM [falling, single point]
CCOC(=O)Nc1ccc(NCc2ccc(F)cc2)nc1N | 15.9% | 6.51 µM [rising, single point] | 
Cc1cccc(C(=O)N/C(=C\c2ccco2)C(=O)N2CCCC2)c1 | -3.36% |  | 16.4 µM [rising, single point]
O=S(=O)(c1ccc(Cl)cc1)N1CN(CC2CCCO2)c2nc3ccccc3nc21 (stereo unspecified) | 11.9% |  | 29.1 µM [rising, single point]
CC(C)Sc1nc2c(c(=O)n1C)SC(C)C2 (stereo unspecified) | 29.2% |  | 0.092 µM [falling, full curve, poor fit]
c1ccc2c(c1)OCCOCCOCCOCCOCCOc1ccccc1OCCOCCOCCO2 | -69.9% | 4.11 µM [falling, partial curve, poor fit] | 32.6 µM [falling, partial curve]
O=S(=O)(Nc1ccc2nc(-c3ccc(Br)o3)[nH]c2c1)c1ccccc1 | -3.57% |  | 3.66 µM [falling, single point]
CC(NC(=O)c1cc(=O)[nH]c2ccccc12)c1ccc(F)cc1F (stereo unspecified) | 40.8% | 29.1 µM [rising, single point] | 11.2 µM [falling, partial curve]
O=c1[nH]c(/C=C/c2ccccc2)c([N+](=O)[O-])c(=O)[nH]1 | -20.1% |  | 0.058 µM [falling, full curve, poor fit]
Cc1cccc(-c2ccc(NC(=O)C3CCN(CC4CC4)CC3)cc2)c1 | 11.9% |  | 0.13 µM [rising, full curve, poor fit]
CCCC(=O)Nc1ccc(-c2csc(-c3cccnc3)n2)cc1 | -28.3% |  | 29.1 µM [falling, single point]
COc1cc(NC(=O)c2ccc(C)cc2)ccc1NC(=O)c1cc2ccccc2o1 | -13.5% | 4.61 µM [falling, single point] | 
c1ccc(-n2c(Cc3cn4ccsc4n3)nnc2N2CCOCC2)cc1 | 8.66% |  | 
Cc1ccc(S(=O)(=O)Nc2ccc(-c3nc4cc(NS(=O)(=O)c5ccc(C)cc5)ccc4o3)cc2)cc1 | -9.05% |  | 
COc1ccc(NC(=O)CSc2nccn2Cc2ccc(F)cc2)c(OC)c1 | 33.6% | 4.11 µM [rising, full curve] | 0.517 µM [rising, full curve]
Cc1ccc(-c2nn(-c3ccccc3)cc2C(=O)NCC2CCCO2)cc1 (stereo unspecified) | 4.02% |  | 
O=C(Nc1ccc(O)cc1)c1ccc2c(c1)C(=O)N(Cc1cccnc1)C2=O | 2.77% |  | 14.1 µM [rising, single point]
CCOP(=O)(c1ccccc1)C(O)c1ccc(Br)cc1 (stereo unspecified) | 1.15% |  | 

Compound | cell number change | AC50 [1] | AC50 [2]
Cc1ccc(S(=O)(=O)c2nc(-c3ccccc3)oc2NCc2cccnc2)cc1 | 5.98% |  | 0.291 µM [rising, full curve]
CC(OC(=O)c1cc2ccccc2o1)C(=O)Nc1ccc(N2CCOCC2)cc1 (stereo unspecified) | 27.4% |  | 
COc1ccc2[nH]cc(CCNC(=O)C3CCCNC3=O)c2c1 (stereo unspecified) | 25.3% |  | 9.2 µM [falling, single point]
c1csc(-c2ccc3ccccc3n2)c1 | -15.6% | 6.51 µM [rising, partial curve, poor fit] | 6.51 µM [rising, partial curve, poor fit]
COC(=O)c1ccc(OC)c(Cn2c(=O)n(C)c(=O)c3sccc32)c1 | -9.26% |  | 
COc1ccc(N(CC(=O)N/N=C/c2cccs2)S(=O)(=O)c2ccccc2)cc1 |  | 0.184 µM [rising, full curve] | 0.082 µM [rising, partial curve, poor fit]
CCN1C(=O)C(CC(=O)Nc2ccc(Br)cc2)N(CCCc2ccccc2)C1=S (stereo unspecified) | -26.3% |  | 
CCCC(=O)c1cc(F)c(N2CCOCC2)cc1C | -31.4% | 1.16 µM [falling, partial curve, poor fit] | 6.51 µM [falling, single point]
O=C(NCCc1ccccc1)c1ccc(CS(=O)(=O)c2ccc(Br)cc2)o1 | -52.9% | 18.4 µM [falling, single point] | 6.51 µM [falling, single point]
COc1ccc(CCNC(=O)CN2C(=O)NC(CCSC)C2=O)cc1 (stereo unspecified) | -25.5% |  | 
COc1ccc(C(=O)Nc2ccnn2C2CCN(Cc3cccnc3)CC2)cc1 | 18.8% |  | 
CC[n+]1c(/C=C/c2ccc(N(C)C)cc2)ccc2ccccc21 | -56% | 11.6 µM [falling, partial curve] | 1.46 µM [falling, full curve]
Cc1ccc(S(=O)(=O)NCc2n[nH]c(=S)n2C)cc1 | 1.83% |  | 0.146 µM [rising, full curve, poor fit]
COc1ccc(-c2cc(C(=O)Nc3cccnc3Cl)no2)cc1OC | 10.4% |  | 29.1 µM [rising, single point]
Cc1ccc(C)c(S(=O)(=O)c2c[nH]c(=S)[nH]c2=O)c1 | -19.8% |  | 0.116 µM [falling, single point]
CCOc1ccccc1N1CCN(Cc2cc3c(cc2[N+](=O)[O-])OCO3)CC1 | -12.5% |  | 18.4 µM [falling, single point]
O=C(NCCCN1CCOCC1)c1cccc(S(=O)(=O)N2CCN(c3ccccc3)CC2)c1 | 23% |  | 
CC(OC(=O)CCN=C1NS(=O)(=O)c2ccccc21)C(=O)NCc1ccccc1 (stereo unspecified) | 0.536% |  | 29.1 µM [falling, single point]
COc1ccc(C)c2sc(N(CCN(C)C)C(=O)c3ccc4ccccc4c3)nc12 | 2.14% |  | 0.92 µM [rising, partial curve]
C/C(CC(=O)Nc1cc(C)ccn1)=N\NC(=O)c1cccc(F)c1 | -19.7% | 0.184 µM [falling, full curve, poor fit] | 
Cc1ccc2c(c1)/C(=C/c1ccccc1C)C(=O)N2 | -12.6% |  | 

Compound | cell number change | AC50 [1] | AC50 [2]
Cc1cc(S(=O)(=O)N(Cc2cccs2)Cc2ccccc2F)ccc1-n1cnnn1 | 49.3% | 3.26 µM [falling, partial curve, poor fit] | 
O=C(NCCc1ccc2c(c1)OCCO2)c1cc2ccccc2o1 | 14.4% |  | 1.84 µM [rising, partial curve]
S=C(Nc1cccnc1)NC1CCCC1 | 13% |  | 0.461 µM [rising, full curve, poor fit]
CC(=O)Nc1ccccc1NC(=O)c1cc(C)ccc1C | 30% |  | 20.6 µM [rising, single point]
Cc1ccc(C2(c3ccccc3)NC(=O)N(CC(=O)NC3CCCCC3)C2=O)cc1C (stereo unspecified) | 24% |  | 
CC1Cc2ccccc2N1C(=O)COC(=O)c1cccc(Br)c1 (stereo unspecified) | -3.38% |  | 2.06 µM [rising, partial curve, poor fit]
C=CCOc1ccc(/C=N/N2C(=O)C(CC(=O)Nc3ccc(F)cc3F)SC2=NC)cc1 (stereo unspecified) |  |  | 16.4 µM [falling, partial curve]
Cc1ccccc1OCc1nc2ccc(S(=O)(=O)N3CCOCC3)cc2[nH]1 | 21% | 3.26 µM [rising, partial curve] | 
Cc1nc2nc[nH]n2c(=O)c1NS(=O)(=O)c1ccc(F)cc1 |  | 0.517 µM [falling, single point] | 0.58 µM [falling, full curve]
CCOC(=O)C1=C(c2ccccc2)NC(N)=NC1c1ccc(OCc2ccc(Cl)cc2)c(OC)c1 (stereo unspecified) | -64.2% | 23.1 µM [falling, single point] | 
Cc1ccc2nc(SCc3nc4c(cnn4-c4ccccc4)c(=O)[nH]3)[nH]c2c1 | -53.7% | 14.6 µM [falling, single point] | 
COc1ccc(N2CCN(c3oc(COc4ccccc4Cl)nc3C#N)CC2)cc1 | -1.72% |  | 0.326 µM [falling, full curve]
Cc1ccc(S(=O)(=O)NCCC(=O)NCc2ccc3c(c2)OCO3)cc1C | 85.7% | 9.2 µM [rising, partial curve] | 
Cc1ccc(S(=O)(=O)N2CCN(Cc3ccco3)CC2)cc1C | -22.8% |  | 29.1 µM [rising, single point]
Cn1c(N)nc2ccccc2c1=O | -47.5% |  | 
O=C(c1cnccn1)N(c1ccccc1)C1(C(=O)NC2CCCCC2)CCCCC1 | -23.4% |  | 0.58 µM [falling, partial curve, poor fit]
Oc1ccc(CNc2ccccc2F)c2cccnc12 | -25.6% |  | 
CCn1c(=O)c(=O)[nH]c2cc(C(=O)Nc3ccc(S(=O)(=O)N4CCCC4)cc3)ccc21 | -42% | 4.11 µM [falling, full curve] | 1.3 µM [falling, full curve]
COc1ccc(-n2c(=S)[nH]c3cc(C(=O)Nc4ccc(C)c(F)c4)ccc3c2=O)c(OC)c1 | 31.5% |  | 4.11 µM [falling, full curve]

Individual results from the list:
For AC50 [2], CC1Cc2ccccc2N1C(=O)COC(=O)c1cccc(Br)c1 (stereo unspecified) has the entry 2.06 µM [rising, partial curve, poor fit]
For cell number change, Oc1ccc(CNc2ccccc2F)c2cccnc12 has the entry -25.6%
For cell number change, Cc1ccc(C2(c3ccccc3)NC(=O)N(CC(=O)NC3CCCCC3)C2=O)cc1C (stereo unspecified) has the entry 24%
For cell number change, CCOC(=O)C1=C(c2ccccc2)NC(N)=NC1c1ccc(OCc2ccc(Cl)cc2)c(OC)c1 (stereo unspecified) has the entry -64.2%
For AC50 [2], COc1ccc(N2CCN(c3oc(COc4ccccc4Cl)nc3C#N)CC2)cc1 has the entry 0.326 µM [falling, full curve]

Reference: PubChem BioAssay AID2685 (National Center for Advancing Translational Sciences (NCATS), 2010)
